Assay results taken from the supplement of paper PMC7661543.
Differences between knockout arms are mostly noise.

System: MDA-MB-231
Test: relative cell number vs DMSO control (72 h) (% of DMSO); higher = less growth inhibition (more cells)
Protocol: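 QMAP-Seq: a pool of 5 breast cancer cell lines (ZR-75-1, SKBR3, HCC-38, MDA-MB-231, BT-20), each carrying 12 doxycycline-inducible Cas9 sgRNA perturbations (11 knockouts plus non-targeting sgNT), was treated with compounds for 72 h at four 10-fold doses (10 nM-10 uM or 1 nM-1 uM range). Barcodes were amplified and sequenced, and cell number was interpolated from 293T spike-in standard curves. The result is expressed as % of the median of DMSO wells. Two biological replicates.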

CC(C)c1cc(-c2n[nH]c(=O)n2-c2ccc3c(ccn3C)c2)c(O)cc1O [Ganetespib]
Conditions | relative cell number
sgRNA knockout: sgATF3, 1 nM | 97.4
sgRNA knockout: sgATF3, 10 nM | 113
sgRNA knockout: sgATF3, 100 nM | 9.73
sgRNA knockout: sgATF3, 1000 nM | 9.02
sgRNA knockout: sgATF4, 1 nM | 94.6
sgRNA knockout: sgATF4, 10 nM | 115
sgRNA knockout: sgATF4, 100 nM | 17.7
sgRNA knockout: sgATF4, 1000 nM | 14.3
sgRNA knockout: sgATF6, 1 nM | 97.7
sgRNA knockout: sgATF6, 10 nM | 99.4
sgRNA knockout: sgATF6, 100 nM | 15.5
sgRNA knockout: sgATF6, 1000 nM | 7.93
sgRNA knockout: sgATG7, 1 nM | 91.6
sgRNA knockout: sgATG7, 10 nM | 92.3
sgRNA knockout: sgATG7, 100 nM | 10.4
sgRNA knockout: sgATG7, 1000 nM | 12
sgRNA knockout: sgERN1, 1 nM | 90.3
sgRNA knockout: sgERN1, 10 nM | 89.8
sgRNA knockout: sgERN1, 100 nM | 11.7
sgRNA knockout: sgERN1, 1000 nM | 16.2
sgRNA knockout: sgHSF1, 1 nM | 103
sgRNA knockout: sgHSF1, 10 nM | 85.2
sgRNA knockout: sgHSF1, 100 nM | 15.6
sgRNA knockout: sgHSF1, 1000 nM | 14.5
sgRNA knockout: sgHSF2, 1 nM | 72.6
sgRNA knockout: sgHSF2, 10 nM | 101
sgRNA knockout: sgHSF2, 100 nM | 15.3
sgRNA knockout: sgHSF2, 1000 nM | 13.4
sgRNA knockout: sgKEAP1, 1 nM | 89.2
sgRNA knockout: sgKEAP1, 10 nM | 83.8
sgRNA knockout: sgKEAP1, 100 nM | 15.5
sgRNA knockout: sgKEAP1, 1000 nM | 14.6
sgRNA knockout: sgNFE2L2, 1 nM | 102
sgRNA knockout: sgNFE2L2, 10 nM | 107.1
sgRNA knockout: sgNFE2L2, 100 nM | 14.1
sgRNA knockout: sgNFE2L2, 1000 nM | 12.2
sgRNA knockout: sgSLC35F2, 1 nM | 107
sgRNA knockout: sgSLC35F2, 10 nM | 102
sgRNA knockout: sgSLC35F2, 100 nM | 9.53
sgRNA knockout: sgSLC35F2, 1000 nM | 14.5
sgRNA knockout: sgXBP1, 1 nM | 97.2
sgRNA knockout: sgXBP1, 10 nM | 103
sgRNA knockout: sgXBP1, 100 nM | 13.7
sgRNA knockout: sgXBP1, 1000 nM | 10.8

O=C(Cc1ccc(-c2ccc(OCCN3CCOCC3)cc2)cn1)NCc1ccccc1 [KX2391]
Conditions | relative cell number
sgRNA knockout: sgATF3, 10 nM | 119
sgRNA knockout: sgATF3, 100 nM | 40.7
sgRNA knockout: sgATF3, 1000 nM | 19.99
sgRNA knockout: sgATF3, 10000 nM | 19.5
sgRNA knockout: sgATF4, 10 nM | 117
sgRNA knockout: sgATF4, 100 nM | 37.3
sgRNA knockout: sgATF4, 1000 nM | 19.8
sgRNA knockout: sgATF4, 10000 nM | 28.5
sgRNA knockout: sgATF6, 10 nM | 101
sgRNA knockout: sgATF6, 100 nM | 41.5
sgRNA knockout: sgATF6, 1000 nM | 25.4
sgRNA knockout: sgATF6, 10000 nM | 24
sgRNA knockout: sgATG7, 10 nM | 111
sgRNA knockout: sgATG7, 100 nM | 32.4
sgRNA knockout: sgATG7, 1000 nM | 24.8
sgRNA knockout: sgATG7, 10000 nM | 22.2
sgRNA knockout: sgERN1, 10 nM | 162
sgRNA knockout: sgERN1, 100 nM | 26.2
sgRNA knockout: sgERN1, 1000 nM | 19.4
sgRNA knockout: sgERN1, 10000 nM | 22
sgRNA knockout: sgHSF1, 10 nM | 138
sgRNA knockout: sgHSF1, 100 nM | 32.3
sgRNA knockout: sgHSF1, 1000 nM | 17.61
sgRNA knockout: sgHSF1, 10000 nM | 20.3
sgRNA knockout: sgHSF2, 10 nM | 136
sgRNA knockout: sgHSF2, 100 nM | 36.3
sgRNA knockout: sgHSF2, 1000 nM | 24.4
sgRNA knockout: sgHSF2, 10000 nM | 23.5
sgRNA knockout: sgKEAP1, 10 nM | 126
sgRNA knockout: sgKEAP1, 100 nM | 27.2
sgRNA knockout: sgKEAP1, 1000 nM | 22
sgRNA knockout: sgKEAP1, 10000 nM | 12.64
sgRNA knockout: sgNFE2L2, 10 nM | 116
sgRNA knockout: sgNFE2L2, 100 nM | 32.4
sgRNA knockout: sgNFE2L2, 1000 nM | 20.8
sgRNA knockout: sgNFE2L2, 10000 nM | 20.6
sgRNA knockout: sgSLC35F2, 10 nM | 90.5
sgRNA knockout: sgSLC35F2, 100 nM | 35.1
sgRNA knockout: sgSLC35F2, 1000 nM | 24.9
sgRNA knockout: sgSLC35F2, 10000 nM | 23.7
sgRNA knockout: sgXBP1, 10 nM | 117
sgRNA knockout: sgXBP1, 100 nM | 32.7
sgRNA knockout: sgXBP1, 1000 nM | 15.3
sgRNA knockout: sgXBP1, 10000 nM | 21.9

COc1cc(C(=O)N2CCC(N3CCN(C)CC3)CC2)ccc1Nc1ncc2c(n1)N(C)c1ccccc1C(=O)N2C [LRRK2IN1]
Conditions | relative cell number
sgRNA knockout: sgATF3, 10 nM | 117
sgRNA knockout: sgATF3, 100 nM | 86.4
sgRNA knockout: sgATF3, 1000 nM | 59
sgRNA knockout: sgATF3, 10000 nM | 21.2
sgRNA knockout: sgATF4, 10 nM | 112
sgRNA knockout: sgATF4, 100 nM | 90.4
sgRNA knockout: sgATF4, 1000 nM | 61.3
sgRNA knockout: sgATF4, 10000 nM | 24.4
sgRNA knockout: sgATF6, 10 nM | 91
sgRNA knockout: sgATF6, 100 nM | 87.5
sgRNA knockout: sgATF6, 1000 nM | 57.3
sgRNA knockout: sgATF6, 10000 nM | 19.9
sgRNA knockout: sgATG7, 10 nM | 105
sgRNA knockout: sgATG7, 100 nM | 81.3
sgRNA knockout: sgATG7, 1000 nM | 56.5
sgRNA knockout: sgATG7, 10000 nM | 21.8
sgRNA knockout: sgERN1, 10 nM | 107
sgRNA knockout: sgERN1, 100 nM | 90.6
sgRNA knockout: sgERN1, 1000 nM | 58
sgRNA knockout: sgERN1, 10000 nM | 13.8
sgRNA knockout: sgHSF1, 10 nM | 115
sgRNA knockout: sgHSF1, 100 nM | 72.9
sgRNA knockout: sgHSF1, 1000 nM | 56.5
sgRNA knockout: sgHSF1, 10000 nM | 20.5
sgRNA knockout: sgHSF2, 10 nM | 109
sgRNA knockout: sgHSF2, 100 nM | 93.6
sgRNA knockout: sgHSF2, 1000 nM | 50
sgRNA knockout: sgHSF2, 10000 nM | 18.7
sgRNA knockout: sgKEAP1, 10 nM | 111
sgRNA knockout: sgKEAP1, 100 nM | 88.9
sgRNA knockout: sgKEAP1, 1000 nM | 52
sgRNA knockout: sgKEAP1, 10000 nM | 17.4
sgRNA knockout: sgNFE2L2, 10 nM | 104
sgRNA knockout: sgNFE2L2, 100 nM | 70.1
sgRNA knockout: sgNFE2L2, 1000 nM | 54.8
sgRNA knockout: sgNFE2L2, 10000 nM | 20.1
sgRNA knockout: sgSLC35F2, 10 nM | 110
sgRNA knockout: sgSLC35F2, 100 nM | 94.1
sgRNA knockout: sgSLC35F2, 1000 nM | 69.5
sgRNA knockout: sgSLC35F2, 10000 nM | 20.31
sgRNA knockout: sgXBP1, 10 nM | 104
sgRNA knockout: sgXBP1, 100 nM | 89
sgRNA knockout: sgXBP1, 1000 nM | 52.1
sgRNA knockout: sgXBP1, 10000 nM | 19.9

N#Cc1ccc(C(c2ccc(C#N)cc2)n2cncn2)cc1 [Letrozole]
Conditions | relative cell number
sgRNA knockout: sgATF3, 1 nM | 110
sgRNA knockout: sgATF3, 10 nM | 94.2
sgRNA knockout: sgATF3, 100 nM | 110
sgRNA knockout: sgATF3, 1000 nM | 98.9
sgRNA knockout: sgATF4, 1 nM | 124
sgRNA knockout: sgATF4, 10 nM | 109
sgRNA knockout: sgATF4, 100 nM | 74.6
sgRNA knockout: sgATF4, 1000 nM | 81
sgRNA knockout: sgATF6, 1 nM | 84.9
sgRNA knockout: sgATF6, 10 nM | 58.9
sgRNA knockout: sgATF6, 100 nM | 80.7
sgRNA knockout: sgATF6, 1000 nM | 93.9
sgRNA knockout: sgATG7, 1 nM | 86.5
sgRNA knockout: sgATG7, 10 nM | 67.3
sgRNA knockout: sgATG7, 100 nM | 86.2
sgRNA knockout: sgATG7, 1000 nM | 94.4
sgRNA knockout: sgERN1, 1 nM | 97.8
sgRNA knockout: sgERN1, 10 nM | 110
sgRNA knockout: sgERN1, 100 nM | 73.3
sgRNA knockout: sgERN1, 1000 nM | 129
sgRNA knockout: sgHSF1, 1 nM | 102
sgRNA knockout: sgHSF1, 10 nM | 97.3
sgRNA knockout: sgHSF1, 100 nM | 77.5
sgRNA knockout: sgHSF1, 1000 nM | 110
sgRNA knockout: sgHSF2, 1 nM | 107
sgRNA knockout: sgHSF2, 10 nM | 69
sgRNA knockout: sgHSF2, 100 nM | 122
sgRNA knockout: sgHSF2, 1000 nM | 82.9
sgRNA knockout: sgKEAP1, 1 nM | 97.9
sgRNA knockout: sgKEAP1, 10 nM | 95.4
sgRNA knockout: sgKEAP1, 100 nM | 111
sgRNA knockout: sgKEAP1, 1000 nM | 108
sgRNA knockout: sgNFE2L2, 1 nM | 84.8
sgRNA knockout: sgNFE2L2, 10 nM | 67.7
sgRNA knockout: sgNFE2L2, 100 nM | 115
sgRNA knockout: sgNFE2L2, 1000 nM | 109
sgRNA knockout: sgSLC35F2, 1 nM | 83
sgRNA knockout: sgSLC35F2, 10 nM | 81.9
sgRNA knockout: sgSLC35F2, 100 nM | 90.8
sgRNA knockout: sgSLC35F2, 1000 nM | 94.6
sgRNA knockout: sgXBP1, 1 nM | 71.7
sgRNA knockout: sgXBP1, 10 nM | 96
sgRNA knockout: sgXBP1, 100 nM | 92.7
sgRNA knockout: sgXBP1, 1000 nM | 99.2
